Experimental data published in article doi:10.1101/2023.06.29.546996.
Where two headings read alike, the source gives them in different places. These are yes or no findings as the source states them, for the method shown. For some of these results: In cells and extracts the contact can be indirect. Some results given as binding are weak or reduced against the parent protein; the word gives no strength. For some of these results: Sequences can lack the tags named with a protein. Each block holds one molecule with its values, some of them ahead of it.

Chains of the proteins cited; added tags and fusions are not shown. Residues count along the entry.
UniProt P34802, residues 52-371: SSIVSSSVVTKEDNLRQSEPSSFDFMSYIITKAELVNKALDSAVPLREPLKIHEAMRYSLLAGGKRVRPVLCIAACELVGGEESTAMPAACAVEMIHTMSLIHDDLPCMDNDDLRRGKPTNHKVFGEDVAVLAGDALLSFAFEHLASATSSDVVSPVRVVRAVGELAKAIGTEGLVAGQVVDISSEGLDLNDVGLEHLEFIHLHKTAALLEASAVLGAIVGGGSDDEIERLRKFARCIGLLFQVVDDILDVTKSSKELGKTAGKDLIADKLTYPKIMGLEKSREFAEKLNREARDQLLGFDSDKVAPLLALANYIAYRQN

Key:
[1] = biological target: T1, PSY-130 (P178S) fused to the C-terminal ubiquitin moiety (Cub) (Arabidopsis thaliana) (UniProt P37271); assay: two-hybrid
T1 sequence: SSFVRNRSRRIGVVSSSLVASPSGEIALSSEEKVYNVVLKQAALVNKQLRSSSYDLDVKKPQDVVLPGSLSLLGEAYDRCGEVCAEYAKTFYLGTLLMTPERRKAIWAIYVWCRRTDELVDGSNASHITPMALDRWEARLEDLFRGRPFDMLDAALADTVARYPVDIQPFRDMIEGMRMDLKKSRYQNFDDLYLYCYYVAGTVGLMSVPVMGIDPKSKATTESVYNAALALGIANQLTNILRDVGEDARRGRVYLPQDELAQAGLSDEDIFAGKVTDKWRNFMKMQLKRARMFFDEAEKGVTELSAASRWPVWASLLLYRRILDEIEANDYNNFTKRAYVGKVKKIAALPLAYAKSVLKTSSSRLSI

[2] = biological target: T2, PSY-4 (M266I) fused to the C-terminal ubiquitin moiety (Cub) (Arabidopsis thaliana) (UniProt P37271); assay: two-hybrid
T2 sequence: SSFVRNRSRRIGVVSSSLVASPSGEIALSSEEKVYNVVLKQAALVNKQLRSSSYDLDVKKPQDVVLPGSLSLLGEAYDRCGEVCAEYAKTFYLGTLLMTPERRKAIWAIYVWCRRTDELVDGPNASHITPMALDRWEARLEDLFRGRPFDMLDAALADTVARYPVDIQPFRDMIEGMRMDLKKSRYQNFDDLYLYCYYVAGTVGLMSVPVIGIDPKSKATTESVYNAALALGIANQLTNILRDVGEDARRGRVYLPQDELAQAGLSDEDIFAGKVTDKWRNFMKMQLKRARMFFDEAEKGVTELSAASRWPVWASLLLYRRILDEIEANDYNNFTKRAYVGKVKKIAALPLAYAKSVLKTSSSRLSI

[3] = biological target: T3, PSY-90 (A352T) fused to the C-terminal ubiquitin moiety (Cub) (Arabidopsis thaliana) (UniProt P37271); assay: two-hybrid
T3 sequence: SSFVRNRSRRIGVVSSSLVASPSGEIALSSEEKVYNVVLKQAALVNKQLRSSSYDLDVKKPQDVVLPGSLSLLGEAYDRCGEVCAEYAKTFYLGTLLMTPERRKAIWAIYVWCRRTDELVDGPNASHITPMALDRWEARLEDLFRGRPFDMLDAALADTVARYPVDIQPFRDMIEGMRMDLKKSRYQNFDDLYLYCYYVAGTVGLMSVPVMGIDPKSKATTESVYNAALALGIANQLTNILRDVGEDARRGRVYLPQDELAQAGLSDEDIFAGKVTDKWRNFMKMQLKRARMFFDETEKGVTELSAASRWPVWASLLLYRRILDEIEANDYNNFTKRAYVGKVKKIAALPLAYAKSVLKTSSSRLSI

[4] = biological target: T4, wild-type PSY (PHYTOENE SYNTHASE) fused to the C-terminal ubiquitin moiety (Cub) (Arabidopsis thaliana) (UniProt P37271); assay: two-hybrid
T4 sequence: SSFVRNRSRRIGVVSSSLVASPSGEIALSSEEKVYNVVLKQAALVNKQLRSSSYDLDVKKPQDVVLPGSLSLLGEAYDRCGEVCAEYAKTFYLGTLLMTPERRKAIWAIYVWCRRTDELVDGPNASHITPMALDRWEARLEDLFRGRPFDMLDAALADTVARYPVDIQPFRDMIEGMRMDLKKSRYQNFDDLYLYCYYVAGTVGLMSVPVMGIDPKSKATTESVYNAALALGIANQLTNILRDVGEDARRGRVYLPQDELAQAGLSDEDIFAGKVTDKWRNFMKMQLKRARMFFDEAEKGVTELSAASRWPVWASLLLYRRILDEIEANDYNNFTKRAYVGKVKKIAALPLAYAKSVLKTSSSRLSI

[5] = biological target: T1, PSY-130 (P178S) fused to the C-terminal ubiquitin moiety (Cub) (Arabidopsis thaliana); assay: two-hybrid; remark: listed apart in the source
[6] = biological target: T2, PSY-4 (M266I) fused to the C-terminal ubiquitin moiety (Cub) (Arabidopsis thaliana); assay: two-hybrid; remark: listed apart in the source
[7] = biological target: T4, wild-type PSY (PHYTOENE SYNTHASE) fused to the C-terminal ubiquitin moiety (Cub) (Arabidopsis thaliana); assay: two-hybrid; remark: listed apart in the source
[8] = biological target: T5, endogenous PSY (PHYTOENE SYNTHASE) of wild-type sequence from Arabidopsis leaves (Arabidopsis thaliana (endogenous in leaves)) (UniProt P37271); assay: co-IP
T5 sequence: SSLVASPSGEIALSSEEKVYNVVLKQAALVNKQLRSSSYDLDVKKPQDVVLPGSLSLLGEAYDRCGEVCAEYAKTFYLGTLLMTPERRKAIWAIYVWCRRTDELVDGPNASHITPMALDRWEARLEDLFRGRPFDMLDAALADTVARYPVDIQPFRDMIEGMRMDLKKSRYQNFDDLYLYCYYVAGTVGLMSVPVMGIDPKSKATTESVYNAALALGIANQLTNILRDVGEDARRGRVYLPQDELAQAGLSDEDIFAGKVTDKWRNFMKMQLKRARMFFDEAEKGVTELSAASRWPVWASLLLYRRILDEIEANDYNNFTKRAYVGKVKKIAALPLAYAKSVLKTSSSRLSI

[9] = biological target: T6, endogenous PSY-130 (P178S) from ccr2 psy-130 leaves (Arabidopsis thaliana (endogenous in leaves)) (UniProt P37271); assay: co-IP
T6 sequence: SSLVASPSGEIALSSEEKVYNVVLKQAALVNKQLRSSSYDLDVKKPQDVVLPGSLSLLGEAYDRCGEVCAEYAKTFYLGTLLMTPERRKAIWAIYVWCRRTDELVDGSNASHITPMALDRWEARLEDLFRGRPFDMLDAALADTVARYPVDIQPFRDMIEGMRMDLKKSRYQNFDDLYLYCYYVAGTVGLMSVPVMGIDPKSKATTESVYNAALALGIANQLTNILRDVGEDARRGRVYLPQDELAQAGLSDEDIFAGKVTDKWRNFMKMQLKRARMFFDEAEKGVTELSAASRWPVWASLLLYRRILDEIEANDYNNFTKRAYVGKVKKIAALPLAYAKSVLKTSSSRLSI

[10] = biological target: T7, endogenous PSY-4 (M266I) from ccr2 psy-4 leaves (Arabidopsis thaliana (endogenous in leaves)) (UniProt P37271); assay: co-IP
T7 sequence: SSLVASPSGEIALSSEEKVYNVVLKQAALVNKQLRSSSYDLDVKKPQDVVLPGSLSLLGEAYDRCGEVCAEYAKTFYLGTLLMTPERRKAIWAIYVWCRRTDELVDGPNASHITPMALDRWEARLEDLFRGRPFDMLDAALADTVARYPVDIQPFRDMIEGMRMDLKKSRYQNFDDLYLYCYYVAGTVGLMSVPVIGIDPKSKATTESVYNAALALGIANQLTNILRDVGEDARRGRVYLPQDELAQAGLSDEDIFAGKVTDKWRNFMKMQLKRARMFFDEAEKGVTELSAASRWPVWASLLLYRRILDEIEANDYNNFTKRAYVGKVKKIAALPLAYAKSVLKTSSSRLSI

binding [1]: binds
binding [2]: binds
binding [3]: binds
binding [4]: binds
Molecule: Arabidopsis GGPP SYNTHASE 11 (AtGGPPS11) fused to the N-terminal ubiquitin moiety (Nub) (from UniProt P34802 52-371) (enzyme)

binding [5]: binds
binding [6]: binds
binding [7]: binds
B1: Arabidopsis ORANGE (AtOR) fused to the N-terminal ubiquitin moiety (Nub) (protein, UniProt Q9FKF4 56-307)
chain: ADKFASGFCIIEGPETVQDFAKMQLQEIQDNIRSRRNKIFLHMEEVRRLRIQQRIKNTELGIINEEQEHELPNFPSFIPFLPPLTAANLKVYYATCFSLIAGIILFGGLLAPTLELKLGIGGTSYADFIQSLHLPMQLSQVDPIVASFSGGAVGVISALMVVEVNNVKQQEHKRCKYCLGTGYLACARCSSTGALVLTEPVSAIAGGNHSLSPPKTERCSNCSGAGKVMCPTCLCTGMAMASEHDPRIDPFD

binding [8]: binds
binding [9]: binds
binding [10]: binds
B2: endogenous Arabidopsis ORANGE (AtOR) from leaves (protein, UniProt Q9FKF4 56-307)
chain: ADKFASGFCIIEGPETVQDFAKMQLQEIQDNIRSRRNKIFLHMEEVRRLRIQQRIKNTELGIINEEQEHELPNFPSFIPFLPPLTAANLKVYYATCFSLIAGIILFGGLLAPTLELKLGIGGTSYADFIQSLHLPMQLSQVDPIVASFSGGAVGVISALMVVEVNNVKQQEHKRCKYCLGTGYLACARCSSTGALVLTEPVSAIAGGNHSLSPPKTERCSNCSGAGKVMCPTCLCTGMAMASEHDPRIDPFD
